Measurements published in the supplement of paper PMC12819154, “High-throughput peptide-centric local stability assay extends protein–ligand identification to membrane proteins, tissues and bacteria” (Nature Structural & Molecular Biology, 2025).
This is one part of the list. Small differences around the control level are noise.

Amino acid sequences for entries named in this document (tags omitted). A change or cut given only in a name is not applied to a line headed by its entry.
UniProt Q6EMB2: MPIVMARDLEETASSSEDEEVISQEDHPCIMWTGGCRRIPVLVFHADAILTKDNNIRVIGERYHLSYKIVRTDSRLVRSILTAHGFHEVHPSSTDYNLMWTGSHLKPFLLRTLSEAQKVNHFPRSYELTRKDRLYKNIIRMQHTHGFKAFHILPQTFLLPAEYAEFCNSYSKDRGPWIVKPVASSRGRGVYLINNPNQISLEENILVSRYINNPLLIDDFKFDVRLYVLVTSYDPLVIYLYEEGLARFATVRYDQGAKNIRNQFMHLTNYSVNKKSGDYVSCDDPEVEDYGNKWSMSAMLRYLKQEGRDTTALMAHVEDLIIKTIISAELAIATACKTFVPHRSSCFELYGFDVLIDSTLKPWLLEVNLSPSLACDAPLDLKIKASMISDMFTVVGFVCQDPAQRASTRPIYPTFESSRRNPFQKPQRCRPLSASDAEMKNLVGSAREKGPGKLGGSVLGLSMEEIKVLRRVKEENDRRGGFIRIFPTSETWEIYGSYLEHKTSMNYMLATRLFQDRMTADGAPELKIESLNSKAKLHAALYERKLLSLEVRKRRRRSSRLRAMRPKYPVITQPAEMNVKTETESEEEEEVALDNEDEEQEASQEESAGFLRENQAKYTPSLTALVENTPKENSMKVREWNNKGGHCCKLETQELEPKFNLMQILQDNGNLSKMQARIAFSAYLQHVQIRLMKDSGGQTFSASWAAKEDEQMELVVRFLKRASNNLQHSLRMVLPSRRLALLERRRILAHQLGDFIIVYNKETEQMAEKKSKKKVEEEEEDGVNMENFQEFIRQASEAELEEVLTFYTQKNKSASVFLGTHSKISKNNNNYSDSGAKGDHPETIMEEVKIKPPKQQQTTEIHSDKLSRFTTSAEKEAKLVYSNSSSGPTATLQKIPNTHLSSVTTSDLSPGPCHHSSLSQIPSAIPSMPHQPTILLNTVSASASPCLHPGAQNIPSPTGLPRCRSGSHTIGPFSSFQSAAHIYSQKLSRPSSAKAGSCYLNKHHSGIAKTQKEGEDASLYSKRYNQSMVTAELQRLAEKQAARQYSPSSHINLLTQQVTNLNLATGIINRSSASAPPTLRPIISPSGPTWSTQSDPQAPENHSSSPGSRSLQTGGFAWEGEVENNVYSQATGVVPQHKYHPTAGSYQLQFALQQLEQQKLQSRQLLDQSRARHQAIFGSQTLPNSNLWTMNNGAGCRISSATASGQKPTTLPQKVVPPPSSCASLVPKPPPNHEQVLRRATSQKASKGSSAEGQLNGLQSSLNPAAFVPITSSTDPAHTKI
UniProt Q6P499: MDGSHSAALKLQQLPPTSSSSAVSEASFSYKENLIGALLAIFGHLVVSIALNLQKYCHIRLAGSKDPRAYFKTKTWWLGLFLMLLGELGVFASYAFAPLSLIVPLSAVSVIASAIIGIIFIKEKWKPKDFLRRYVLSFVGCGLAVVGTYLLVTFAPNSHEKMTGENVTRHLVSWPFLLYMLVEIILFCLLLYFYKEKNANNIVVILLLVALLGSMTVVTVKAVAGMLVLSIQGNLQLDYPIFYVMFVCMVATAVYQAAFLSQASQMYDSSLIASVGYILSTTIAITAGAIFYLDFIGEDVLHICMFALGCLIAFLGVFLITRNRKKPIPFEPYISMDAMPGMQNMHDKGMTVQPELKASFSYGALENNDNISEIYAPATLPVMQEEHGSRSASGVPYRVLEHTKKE
UniProt Q6N063: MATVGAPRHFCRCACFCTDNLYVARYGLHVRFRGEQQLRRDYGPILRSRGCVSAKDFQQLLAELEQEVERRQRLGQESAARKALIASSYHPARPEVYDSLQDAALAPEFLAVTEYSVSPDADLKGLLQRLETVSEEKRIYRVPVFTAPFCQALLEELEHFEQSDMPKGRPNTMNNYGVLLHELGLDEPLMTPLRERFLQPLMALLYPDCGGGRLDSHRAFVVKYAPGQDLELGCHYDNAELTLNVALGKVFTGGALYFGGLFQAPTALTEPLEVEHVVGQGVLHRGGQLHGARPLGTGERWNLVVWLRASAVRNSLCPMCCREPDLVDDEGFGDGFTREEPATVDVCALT
UniProt Q6PCB5: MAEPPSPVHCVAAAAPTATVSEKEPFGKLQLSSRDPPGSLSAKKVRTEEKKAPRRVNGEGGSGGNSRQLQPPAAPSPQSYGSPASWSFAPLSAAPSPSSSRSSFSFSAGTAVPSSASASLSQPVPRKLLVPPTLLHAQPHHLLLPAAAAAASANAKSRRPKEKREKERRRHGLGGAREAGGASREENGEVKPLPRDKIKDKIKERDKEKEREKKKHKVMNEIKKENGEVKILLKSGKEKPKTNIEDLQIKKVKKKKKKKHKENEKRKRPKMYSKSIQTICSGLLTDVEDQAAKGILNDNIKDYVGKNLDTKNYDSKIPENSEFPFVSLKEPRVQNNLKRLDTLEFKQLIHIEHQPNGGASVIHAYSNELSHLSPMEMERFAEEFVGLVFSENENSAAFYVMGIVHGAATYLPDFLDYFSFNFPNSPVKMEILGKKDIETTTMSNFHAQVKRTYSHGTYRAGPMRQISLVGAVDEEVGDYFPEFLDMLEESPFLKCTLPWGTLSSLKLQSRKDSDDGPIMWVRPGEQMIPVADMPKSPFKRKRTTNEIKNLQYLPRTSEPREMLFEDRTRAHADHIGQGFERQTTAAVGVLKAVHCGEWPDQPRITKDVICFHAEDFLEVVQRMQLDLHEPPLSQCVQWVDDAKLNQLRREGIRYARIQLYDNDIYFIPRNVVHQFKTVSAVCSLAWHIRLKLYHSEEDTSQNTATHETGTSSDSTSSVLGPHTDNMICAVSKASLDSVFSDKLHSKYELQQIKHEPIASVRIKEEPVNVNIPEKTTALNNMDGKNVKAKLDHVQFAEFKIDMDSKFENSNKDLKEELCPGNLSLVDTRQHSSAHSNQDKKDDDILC
UniProt Q6EKJ0: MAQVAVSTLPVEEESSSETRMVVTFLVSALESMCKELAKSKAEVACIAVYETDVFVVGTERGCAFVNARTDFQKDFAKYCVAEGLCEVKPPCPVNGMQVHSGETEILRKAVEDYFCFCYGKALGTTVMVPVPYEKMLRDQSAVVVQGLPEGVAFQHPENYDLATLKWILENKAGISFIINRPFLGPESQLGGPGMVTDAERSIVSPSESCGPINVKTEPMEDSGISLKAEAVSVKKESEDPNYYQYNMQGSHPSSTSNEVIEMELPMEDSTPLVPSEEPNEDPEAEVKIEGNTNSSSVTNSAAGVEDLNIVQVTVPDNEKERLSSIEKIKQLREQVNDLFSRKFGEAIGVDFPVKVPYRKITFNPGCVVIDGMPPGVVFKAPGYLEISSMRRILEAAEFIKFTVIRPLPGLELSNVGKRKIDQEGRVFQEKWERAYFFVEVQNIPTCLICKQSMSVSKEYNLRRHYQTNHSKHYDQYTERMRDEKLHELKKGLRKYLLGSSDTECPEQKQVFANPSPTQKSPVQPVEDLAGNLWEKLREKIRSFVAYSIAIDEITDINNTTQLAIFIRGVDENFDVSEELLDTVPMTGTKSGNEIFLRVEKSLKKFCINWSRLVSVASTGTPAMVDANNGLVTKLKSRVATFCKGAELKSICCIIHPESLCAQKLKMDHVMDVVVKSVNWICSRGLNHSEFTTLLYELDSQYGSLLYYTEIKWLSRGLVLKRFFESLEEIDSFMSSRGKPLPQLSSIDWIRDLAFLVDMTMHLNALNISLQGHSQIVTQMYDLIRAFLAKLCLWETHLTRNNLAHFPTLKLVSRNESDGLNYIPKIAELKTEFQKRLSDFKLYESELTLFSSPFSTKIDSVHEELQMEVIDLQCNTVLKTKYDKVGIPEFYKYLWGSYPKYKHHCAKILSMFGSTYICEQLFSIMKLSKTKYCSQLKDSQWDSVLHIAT
UniProt Q68DK2: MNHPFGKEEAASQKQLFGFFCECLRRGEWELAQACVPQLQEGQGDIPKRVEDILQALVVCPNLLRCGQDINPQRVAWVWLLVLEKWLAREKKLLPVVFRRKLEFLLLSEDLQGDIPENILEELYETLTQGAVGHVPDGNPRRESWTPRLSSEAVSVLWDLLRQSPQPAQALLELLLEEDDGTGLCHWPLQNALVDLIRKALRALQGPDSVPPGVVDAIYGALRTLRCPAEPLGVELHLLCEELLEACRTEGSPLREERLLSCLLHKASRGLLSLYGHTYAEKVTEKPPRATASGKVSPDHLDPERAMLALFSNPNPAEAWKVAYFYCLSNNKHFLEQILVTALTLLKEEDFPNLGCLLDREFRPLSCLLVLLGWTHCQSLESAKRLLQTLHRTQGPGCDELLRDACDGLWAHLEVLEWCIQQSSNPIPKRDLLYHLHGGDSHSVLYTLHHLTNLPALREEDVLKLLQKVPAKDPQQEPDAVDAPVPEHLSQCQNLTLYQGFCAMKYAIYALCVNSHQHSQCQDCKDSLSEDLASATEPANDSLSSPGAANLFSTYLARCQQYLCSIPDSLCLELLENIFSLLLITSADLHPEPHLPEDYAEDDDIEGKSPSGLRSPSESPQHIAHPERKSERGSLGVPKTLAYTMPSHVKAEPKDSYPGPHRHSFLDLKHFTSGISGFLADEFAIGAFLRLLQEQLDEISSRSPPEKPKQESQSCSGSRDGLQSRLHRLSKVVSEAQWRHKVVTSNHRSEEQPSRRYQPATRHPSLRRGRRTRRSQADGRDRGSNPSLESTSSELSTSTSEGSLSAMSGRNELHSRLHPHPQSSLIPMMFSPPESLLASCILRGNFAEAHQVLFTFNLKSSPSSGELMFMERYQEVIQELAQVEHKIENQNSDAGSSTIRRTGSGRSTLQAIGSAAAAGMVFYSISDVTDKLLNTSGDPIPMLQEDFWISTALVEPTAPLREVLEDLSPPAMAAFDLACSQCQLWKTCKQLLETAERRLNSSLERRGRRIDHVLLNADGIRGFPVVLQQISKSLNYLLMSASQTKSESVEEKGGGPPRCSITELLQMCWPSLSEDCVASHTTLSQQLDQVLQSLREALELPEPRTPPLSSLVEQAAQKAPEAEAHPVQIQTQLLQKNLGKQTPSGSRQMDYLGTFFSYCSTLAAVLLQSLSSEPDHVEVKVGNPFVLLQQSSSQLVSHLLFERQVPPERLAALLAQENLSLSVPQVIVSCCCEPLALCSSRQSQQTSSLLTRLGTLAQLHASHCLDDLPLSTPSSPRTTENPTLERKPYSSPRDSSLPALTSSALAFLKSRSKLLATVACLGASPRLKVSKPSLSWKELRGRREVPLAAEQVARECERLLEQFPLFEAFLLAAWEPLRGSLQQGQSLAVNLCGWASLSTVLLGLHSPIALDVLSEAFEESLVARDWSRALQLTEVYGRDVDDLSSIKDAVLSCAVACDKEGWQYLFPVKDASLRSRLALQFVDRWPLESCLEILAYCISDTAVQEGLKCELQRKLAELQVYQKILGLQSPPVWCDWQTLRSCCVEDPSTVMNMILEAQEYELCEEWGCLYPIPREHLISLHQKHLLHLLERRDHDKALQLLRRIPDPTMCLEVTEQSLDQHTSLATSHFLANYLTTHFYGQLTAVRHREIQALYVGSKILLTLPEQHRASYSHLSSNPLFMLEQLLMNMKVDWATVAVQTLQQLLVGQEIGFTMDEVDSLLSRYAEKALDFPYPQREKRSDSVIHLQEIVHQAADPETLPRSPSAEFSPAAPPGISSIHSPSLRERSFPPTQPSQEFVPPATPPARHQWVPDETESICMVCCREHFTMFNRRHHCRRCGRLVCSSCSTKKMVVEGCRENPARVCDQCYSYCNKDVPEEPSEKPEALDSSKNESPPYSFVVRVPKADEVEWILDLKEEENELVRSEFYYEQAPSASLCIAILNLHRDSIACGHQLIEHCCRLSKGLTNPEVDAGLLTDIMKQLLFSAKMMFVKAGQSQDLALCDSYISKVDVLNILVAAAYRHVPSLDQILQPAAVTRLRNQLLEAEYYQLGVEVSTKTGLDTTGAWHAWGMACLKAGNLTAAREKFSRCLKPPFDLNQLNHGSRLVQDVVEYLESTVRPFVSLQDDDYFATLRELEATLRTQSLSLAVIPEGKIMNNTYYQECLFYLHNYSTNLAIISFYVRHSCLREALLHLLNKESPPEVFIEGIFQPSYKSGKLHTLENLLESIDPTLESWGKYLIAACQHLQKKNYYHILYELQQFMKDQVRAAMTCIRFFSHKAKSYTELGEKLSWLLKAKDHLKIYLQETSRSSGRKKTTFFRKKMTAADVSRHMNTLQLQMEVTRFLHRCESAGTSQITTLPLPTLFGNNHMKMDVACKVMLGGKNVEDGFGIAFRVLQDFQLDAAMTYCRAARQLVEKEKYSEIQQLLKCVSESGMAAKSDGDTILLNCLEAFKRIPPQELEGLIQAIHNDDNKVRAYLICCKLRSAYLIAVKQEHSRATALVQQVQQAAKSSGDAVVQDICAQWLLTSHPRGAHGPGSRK

Compound: CN[C@@H]1C[C@H]2O[C@@](C)([C@@H]1OC)n1c3ccccc3c3c4c(c5c6ccccc6n2c5c31)C(=O)NC4 [staurosporine]
Assay: log2 fold change of tryptic peptide abundance, ligand vs vehicle (limited proteolysis) (log2 ratio); higher = more trypsin-susceptible (destabilized)
Settings: ligand concentration: 20 uM; sample: K562 cleared lysate; digestion: 4 min, 22 C (HT-PELSA RT4min, Orbitrap Astral)

Target	log2 fold change
UniProt Q6EMB2 (peptide sequence: RIPVLVFHADAILTK, peptide start residue: 38)	0.327
UniProt Q6P499 (peptide sequence: DGSHSAALK, peptide start residue: 2)	-0.0706
OGFOD2 (peptide sequence: NSLCPMCCR, peptide start residue: 314) (UniProt Q6N063)	0.126
UniProt Q6UXG8 (peptide sequence: AHDGGEHPDPLTICPLPVR, peptide start residue: 490)	-0.162
RSBN1L (peptide sequence: AHADHIGQGFER, peptide start residue: 570) (UniProt Q6PCB5)	0.417
UniProt Q6EKJ0 (peptide sequence: EQVNDLFSR, peptide start residue: 870)	-0.135
ZFYVE26 (peptide sequence: YSEIQQLLK, peptide start residue: 2419) (UniProt Q68DK2)	-0.551
